From publication doi:10.1101/2022.09.29.510132
Results are given in words; binding and its absence hold for the method and conditions named. For some of these results: Binding seen in cells or lysates may run through a third protein. Some binding calls cover weakened binding; strength is not graded here.

The chains behind the UniProt entries cited, without tags or fusion partners. Where a name states a change or a piece, a line headed by the entry shows the natural chain unless it says otherwise. Residues count along the entry.
UniProt Q9UHD9: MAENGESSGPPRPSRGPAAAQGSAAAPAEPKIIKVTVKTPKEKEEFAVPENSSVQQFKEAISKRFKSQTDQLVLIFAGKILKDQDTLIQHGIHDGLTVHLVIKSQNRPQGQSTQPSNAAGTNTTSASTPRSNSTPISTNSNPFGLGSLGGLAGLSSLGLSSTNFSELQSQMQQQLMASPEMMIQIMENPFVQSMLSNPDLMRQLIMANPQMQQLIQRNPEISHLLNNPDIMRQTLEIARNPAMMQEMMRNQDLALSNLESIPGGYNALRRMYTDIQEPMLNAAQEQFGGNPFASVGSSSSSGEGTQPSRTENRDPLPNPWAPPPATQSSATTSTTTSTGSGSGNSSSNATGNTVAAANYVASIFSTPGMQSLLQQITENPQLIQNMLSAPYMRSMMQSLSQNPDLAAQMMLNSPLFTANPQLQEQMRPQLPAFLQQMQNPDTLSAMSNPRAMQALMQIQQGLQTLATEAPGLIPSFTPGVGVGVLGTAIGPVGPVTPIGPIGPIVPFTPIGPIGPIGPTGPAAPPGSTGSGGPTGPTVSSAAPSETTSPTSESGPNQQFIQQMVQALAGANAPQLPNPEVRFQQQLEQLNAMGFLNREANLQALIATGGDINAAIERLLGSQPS
UBQLN2 ΔUBLΔUBA (109-576): residues 109-576 of Q9UHD9
UniProt Q9UMX0: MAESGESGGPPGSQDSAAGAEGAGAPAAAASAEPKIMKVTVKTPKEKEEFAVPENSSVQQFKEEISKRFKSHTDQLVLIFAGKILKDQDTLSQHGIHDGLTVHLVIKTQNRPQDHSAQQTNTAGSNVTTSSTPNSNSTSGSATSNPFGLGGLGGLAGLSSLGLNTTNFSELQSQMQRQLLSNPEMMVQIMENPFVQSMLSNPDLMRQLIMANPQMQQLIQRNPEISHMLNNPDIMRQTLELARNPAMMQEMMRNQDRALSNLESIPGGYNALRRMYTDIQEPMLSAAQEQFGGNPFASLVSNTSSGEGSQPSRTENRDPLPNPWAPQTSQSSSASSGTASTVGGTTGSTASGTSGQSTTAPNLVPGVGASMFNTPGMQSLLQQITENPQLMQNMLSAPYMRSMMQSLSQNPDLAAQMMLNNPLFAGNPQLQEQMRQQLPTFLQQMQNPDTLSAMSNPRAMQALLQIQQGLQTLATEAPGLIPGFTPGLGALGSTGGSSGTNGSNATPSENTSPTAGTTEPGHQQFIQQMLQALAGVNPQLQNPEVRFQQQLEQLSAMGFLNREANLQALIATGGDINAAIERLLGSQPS
UniProt Q05086: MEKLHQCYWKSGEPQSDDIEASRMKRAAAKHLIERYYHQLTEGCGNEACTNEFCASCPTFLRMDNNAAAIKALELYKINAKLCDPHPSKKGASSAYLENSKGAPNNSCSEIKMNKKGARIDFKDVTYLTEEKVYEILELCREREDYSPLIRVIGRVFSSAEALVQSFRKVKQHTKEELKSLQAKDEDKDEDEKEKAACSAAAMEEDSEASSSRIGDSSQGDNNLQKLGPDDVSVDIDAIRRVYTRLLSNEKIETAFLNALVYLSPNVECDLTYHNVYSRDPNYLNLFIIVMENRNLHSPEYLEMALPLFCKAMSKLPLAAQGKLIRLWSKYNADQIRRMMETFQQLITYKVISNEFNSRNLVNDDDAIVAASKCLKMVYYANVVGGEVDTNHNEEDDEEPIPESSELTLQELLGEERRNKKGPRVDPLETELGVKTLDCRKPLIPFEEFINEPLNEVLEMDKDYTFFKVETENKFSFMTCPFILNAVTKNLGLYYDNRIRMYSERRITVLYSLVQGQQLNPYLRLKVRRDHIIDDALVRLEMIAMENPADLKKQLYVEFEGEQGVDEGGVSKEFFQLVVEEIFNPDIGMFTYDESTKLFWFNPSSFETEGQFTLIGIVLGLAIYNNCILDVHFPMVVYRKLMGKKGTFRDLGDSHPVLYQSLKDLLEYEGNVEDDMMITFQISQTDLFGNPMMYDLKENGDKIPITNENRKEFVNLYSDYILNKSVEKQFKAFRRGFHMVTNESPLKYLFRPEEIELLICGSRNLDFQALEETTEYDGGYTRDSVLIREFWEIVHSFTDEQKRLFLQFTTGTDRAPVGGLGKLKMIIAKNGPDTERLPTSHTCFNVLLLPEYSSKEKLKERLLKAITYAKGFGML
UniProt P55036: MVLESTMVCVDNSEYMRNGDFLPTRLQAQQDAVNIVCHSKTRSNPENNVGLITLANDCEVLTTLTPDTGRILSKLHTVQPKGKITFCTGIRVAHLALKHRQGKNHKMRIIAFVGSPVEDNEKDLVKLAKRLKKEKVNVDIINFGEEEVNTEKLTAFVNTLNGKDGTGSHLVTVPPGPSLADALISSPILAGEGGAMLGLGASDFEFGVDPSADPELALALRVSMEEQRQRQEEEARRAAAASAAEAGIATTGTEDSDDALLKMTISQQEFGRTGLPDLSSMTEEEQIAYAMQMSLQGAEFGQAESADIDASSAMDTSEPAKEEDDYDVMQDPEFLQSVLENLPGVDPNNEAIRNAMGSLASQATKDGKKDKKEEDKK

What was measured:
[1] = biological target: UBQLN2 ΔUBLΔUBA (109-576) (UniProt Q9UHD9); assay: recruitment to phase-separated droplets
[2] = biological target: UBQLN2 (human (endogenous in HCT116)) (UniProt Q9UHD9); assay: co-IP
[3] = biological target: UBQLN1 (human (endogenous in HCT116)) (UniProt Q9UMX0); assay: co-IP

binding [1]	binding [2]	binding [3]	Substance
no binding (tested: 25 µM AZUL-mEGFP)			AZUL-mEGFP (from UniProt Q05086 24-87) (domain or fragment)
	binds		E6AP (from UniProt Q05086 1-875) (enzyme)
	binds	binds	hRpn10 (from UniProt P55036 1-377)
